Drawing on paper doi:10.1101/2021.09.06.459192, this text covers binding for six molecules.

By UniProt entry, the sequences of proteins in these tests, tags left out.
UniProt P42945: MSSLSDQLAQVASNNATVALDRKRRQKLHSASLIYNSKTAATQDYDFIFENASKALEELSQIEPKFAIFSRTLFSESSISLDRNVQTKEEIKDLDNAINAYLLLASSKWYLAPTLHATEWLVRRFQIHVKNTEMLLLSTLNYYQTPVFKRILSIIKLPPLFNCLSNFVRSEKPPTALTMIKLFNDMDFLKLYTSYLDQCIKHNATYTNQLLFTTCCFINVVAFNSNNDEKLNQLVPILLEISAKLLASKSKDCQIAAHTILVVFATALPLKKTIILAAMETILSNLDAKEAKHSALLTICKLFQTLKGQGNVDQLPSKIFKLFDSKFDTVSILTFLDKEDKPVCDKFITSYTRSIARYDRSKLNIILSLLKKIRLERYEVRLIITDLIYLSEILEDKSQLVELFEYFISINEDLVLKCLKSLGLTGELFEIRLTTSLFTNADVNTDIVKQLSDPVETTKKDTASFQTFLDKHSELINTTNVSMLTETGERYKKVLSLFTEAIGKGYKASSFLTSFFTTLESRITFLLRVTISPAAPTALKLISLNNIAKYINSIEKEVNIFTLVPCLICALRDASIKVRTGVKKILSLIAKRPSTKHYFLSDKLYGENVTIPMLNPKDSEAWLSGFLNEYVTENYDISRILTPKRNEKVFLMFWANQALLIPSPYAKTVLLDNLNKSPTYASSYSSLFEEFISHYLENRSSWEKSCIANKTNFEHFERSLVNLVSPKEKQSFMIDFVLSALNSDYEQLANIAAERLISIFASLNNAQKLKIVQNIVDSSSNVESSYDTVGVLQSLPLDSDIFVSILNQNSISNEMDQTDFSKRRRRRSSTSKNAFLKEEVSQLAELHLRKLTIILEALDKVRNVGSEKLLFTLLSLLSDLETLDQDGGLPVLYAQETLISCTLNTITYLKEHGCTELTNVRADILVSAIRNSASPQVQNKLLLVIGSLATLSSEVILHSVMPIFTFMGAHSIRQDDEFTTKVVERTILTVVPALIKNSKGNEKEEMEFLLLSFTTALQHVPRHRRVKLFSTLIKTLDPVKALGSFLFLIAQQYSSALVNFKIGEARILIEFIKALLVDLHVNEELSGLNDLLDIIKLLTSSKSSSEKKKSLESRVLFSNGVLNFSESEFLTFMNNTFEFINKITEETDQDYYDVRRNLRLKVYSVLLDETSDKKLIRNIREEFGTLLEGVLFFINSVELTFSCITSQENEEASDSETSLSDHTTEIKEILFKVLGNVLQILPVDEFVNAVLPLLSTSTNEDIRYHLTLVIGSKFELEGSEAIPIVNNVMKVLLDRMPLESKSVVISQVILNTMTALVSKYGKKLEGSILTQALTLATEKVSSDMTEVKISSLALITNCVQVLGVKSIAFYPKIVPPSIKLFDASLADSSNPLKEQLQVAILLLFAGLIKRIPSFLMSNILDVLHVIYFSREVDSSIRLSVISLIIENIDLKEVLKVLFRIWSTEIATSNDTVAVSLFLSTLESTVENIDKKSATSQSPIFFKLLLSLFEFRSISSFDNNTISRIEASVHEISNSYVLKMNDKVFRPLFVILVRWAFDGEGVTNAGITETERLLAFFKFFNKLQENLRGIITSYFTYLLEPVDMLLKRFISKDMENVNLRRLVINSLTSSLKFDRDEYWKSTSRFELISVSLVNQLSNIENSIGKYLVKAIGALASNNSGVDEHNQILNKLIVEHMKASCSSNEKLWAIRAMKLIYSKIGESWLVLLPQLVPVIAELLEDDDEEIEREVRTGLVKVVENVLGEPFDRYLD

B1: Lcp5 (protein, UniProt P40079 1-357)
chain: MSELNALLKDINGSLTATSESLERLSGIYSNSATDEIPESNQLHEHLFYDAKKPAEKVSLLSLKNGSMLGYINSLLMLIGNRLDDECKDPSAMDARERSIQHRVVLERGVKPLEKKLAYQLDKLTRAYVKMEKEYKDAEKRALEKSTLVNHSGNDDSEDDESSEDEIAYRPNTSGIINTNKKSSAYRVEETAKQENGEENDDNETGVYKPPKITAVLPPQQTHFEDRFDAREHKDRSNKSRMQAMEEYIRESSDQPDWSASIGADIVNHGRGGIKSLRDTEKERRVTSFEEDNFTRLNITNKAEKRKQKQRERNARMNVIGGEDFGIFSSKRKLEDSTSRRGAKKTRSAWDRAQRRL
B2: Rrp12 (protein, UniProt Q12754 1-1228)
chain: MDQDKVAFLLELEDKLAKIRSQVNSKLENQKHIAIILTAVEENIAGQATNDVSKNIVNYIISFMSLLDQAVDPSTHEIKDIQLASSSTYLLDLIFHYSPKVLLRSKFSEILTKIAPCITAEKANAPLIRAAIGCLESLLIAQDAQAWNNTYDLNVTPKRGLQGILELSLDVRPKVRKRALDAVHAVLLNPPVAPTAEHVAAVFVADFCDKQLAGILNDLSNLSNKQLKAQKTKEDINASVMRSLRLITSVVSTGQWPSSQIEPLCDVLLGVTKSSEQYLVSASFECFESMFKTMAETTISSGLAENKYLRVLDTIFALKPSNVDTLLTKSWIAVVIKGMSTYATHQPLKALRKIPGVFHIMCTYLASETPEVYQAASQCLISILSESVKDDLLLYTPSVDEKVFKNVDEIISQIAKTFIDFLSIRYSHCSREILKILVAAFNKFRYRSNPHFLKSLKIVDTWRVNEEQFMDLRNEIELVIGASISAMGPEMILAEAPLNLDNPSSERPGRAWLLPLIRDYTKNANLATFQNELAPYIKSFQSKFDKVPEESIQLRVFQTIVDQIWSTLPRFCELPMDLRESFTDEFASELSSLLYSEVELRTTICHALKVLAESNVSYAEESSSHNVLLLQRFPISEAQKNIEYLSTKSTNLLAVLFNVYTQTTPNARSYILETIDQYLKITSKEDLEKTFNNVCGLLKNSMNEESSGNVNKEKKKPQLTATLLDLIICMITYLPVSSYSALFSMFSLTVNSADALIQKRAYRIITKLSELKSGSTAVAQFISDIENVMVDSASSVQTSAKAARLTAIKTIVELLPLDHLDFIVRTVAEVILSTKDVNEKSRETAFDTLICMGRKMNEPNGIIKLFQIPGYDPTTPDQSSSISEFFKIISAGLIGESQHMVSSSITGYACLVFEFKNELDSGILMDIYDTIELYLTSNSREIVKSAIGFTKVCVLGLPEELMRPKVPELLLKLLRWSHEHTGHFKAKVKHIIERLIRRFGYDYIEANFPEEDRRLLTNIRKMRNRNKRKDEEVTTGVSDVAATKGSRFMSAFDEAVYGSDEENDNGSDQEENVAGGKMKNGAKQFIVESGDNPLDLLDSQTLAHISSTRPKKFNKNQNRARFNDDAFNFDSEGKLVVKGQPKPSTNVDDPLSAVTSGINAYLEAVKSGPVRGQRNKLKFRKNGKDSDEFGDDDDGEKDSRLMRGRVNQGNKIGKHNKKGPKFKSRKKL
B3: Utp14 (protein, UniProt Q04500 1-899)
chain: MAKKKSKSRSKSSRRVLDALQLAEREINGEFDNSSDNDKRHDARRNGTVVNLLKRSKGDTNSDEDDIDSESFEDEELNSDEALGSDDDYDILNSKFSQTIRDKKENANYQEEEDEGGYTSIDEEDLMPLSQVWDMDEKTAQSNGNDDEDASPQLKLQDTDISSESSSSEESESESEDDEEEEDPFDEISEDEEDIELNTITSKLIDETKSKAPKRLDTYGSGEANEYVLPSANAASGASGKLSLTDMMNVIDDRQVIENANLLKGKSSTYEVPLPQRIQQRHDRKAAYEISRQEVSKWNDIVQQNRRADHLIFPLNKPTEHNHASAFTRTQDVPQTELQEKVDQVLQESNLANPEKDSKFEELSTAKMTPEEMRKRTTEMRLMRELMFREERKARRLKKIKSKTYRKIKKKELMKNRELAAVSSDEDNEDHDIARAKERMTLKHKTNSKWAKDMIKHGMTNDAETREEMEEMLRQGERLKAKMLDRNSDDEEDGRVQTLSDVENEEKENIDSEALKSKLGKTGVMNMAFMKNGEAREREANKETLRQLRAVENGDDIKLFESDEEETNGENIQINKGRRIYTPGSLESNKDMNELNDHTRKENKVDESRSLENRLRAKNSGQSKNARTNAEGAIIVEEESDGEPLQDGQNNQQDEEAKDVNPWLANESDEEHTVKKQSSKVNVIDKDSSKNVKAMNKMEKAELKQKKKKKGKSNDDEDLLLTADDSTRLKIVDPYGGSDDEQGDNVFMFKQQDVIAEAFAGDDVVAEFQEEKKRVIDDEDDKEVDTTLPGWGEWAGAGSKPKNKKRKFIKKVKGVVNKDKRRDKNLQNVIINEKVNKKNLKYQSSAVPFPFENREQYERSLRMPIGQEWTSRASHQELIKPRIMTKPGQVIDPLKAPFK
B4: Bfr2 (protein, UniProt Q06631 1-534)
chain: MEKSLADQISDIAIKPVNKDFDIEDEENASLFQHNEKNGESDLSDYGNSNTEETKKAHYLEVEKSKLRAEKGLELNDPKYTGVKGSRQALYEEVSENEDEEEEEEEEEEKEEDALSFRTDSEDEEVEIDEEESDADGGETEEAQQKRHALSKLIQQETKQAINKLSQSVQRDASKGYSILQQTKLFDNIIDLRIKLQKAVIAANKLPLTTESWEEAKMDDSEETKRLLKENEKLFNNLFNRLINFRIKFQLGDHITQNEEVAKHKLSKKRSLKELYQETNSLDSELKEYRTAVLNKWSTKVSSASGNAALSSNKFKAINLPADVQVENQLSDMSRLMKRTKLNRRNITPLYFQKDCANGRLPELISPVVKDSVDDNENSDDGLDIPKNYDPRRKDNNAIDITENPYVFDDEDFYRVLLNDLIDKKISNAHNSESAAITITSTNARSNNKLKKNIDTKASKGRKLNYSVQDPIANYEAPITSGYKWSDDQIDEFFAGLLGQRVNFNENEDEEQHARIENDEELEAVKNDDIQIFG
B5: Enp1 (protein, UniProt P38333 1-483)
chain: MARASSTKARKQRHDPLLKDLDAAQGTLKKINKKKLAQNDAANHDAANEEDGYIDSKASRKILQLAKEQQDEIEGEELAESERNKQFEARFTTMSYDDEDEDEDEDEEAFGEDISDFEPEGDYKEEEEIVEIDEEDAAMFEQYFKKSDDFNSLSGSYNLADKIMASIREKESQVEDMQDDEPLANEQNTSRGNISSGLKSGEGVALPEKVIKAYTTVGSILKTWTHGKLPKLFKVIPSLRNWQDVIYVTNPEEWSPHVVYEATKLFVSNLTAKESQKFINLILLERFRDNIETSEDHSLNYHIYRAVKKSLYKPSAFFKGFLFPLVETGCNVREATIAGSVLAKVSVPALHSSAALSYLLRLPFSPPTTVFIKILLDKKYALPYQTVDDCVYYFMRFRILDDGSNGEDATRVLPVIWHKAFLTFAQRYKNDITQDQRDFLLETVRQRGHKDIGPEIRRELLAGASREFVDPQEANDDLMIDVN
B6: Faf1 (protein, UniProt P40546 1-346)
chain: MTLDDDDYIKQMELQRKAFESQFGSLESMGFEDKTKNIRTEVDTRDSSGDEIDNSDHGSDFKDGTIESSNSSDEDSGNETAEENNQDSKPKTQPKVIRFNGPSDVYVPPSKKTQKLLRSGKTLTQINKKLESTEAKEEKEDETLEAENLQNDLELQQFLRESHLLSAFNNGGSGSTNSGVSLTLQSMGGGNDDGIVYQDDQVIGKARSRTLEMRLNRLSRVNGHQDKINKLEKVPMHIRRGMIDKHVKRIKKYEQEAAEGGIVLSKVKKGQFRKIESTYKKDIERRIGGSIKARDKEKATKRERGLKISSVGRSTRNGLIVSKRDIARISGGERSGKFNGKKKSRR

Results are given in words; binding and its absence hold for the method and conditions named. Binding seen in cells or lysates may run through a third protein. A yes stands for co-enrichment or nearness to the bait. Other partners may have been found.

The target of the experiment is Utp10-TAP (S. cerevisiae) (UniProt P42945). Kind of experiment: affinity purification with mass spectrometry.
B1: the binding result is given as “binds”.

Consider B2, for which the binding result is given as “binds”.

On to B3, for which the binding result was “binds”.

On to B4, for which the binding entry is reported as “binds”.

As to B5, the binding entry is listed as “binds”.

For B6, the binding entry is “binds”.
